Laboratory results as given in PMC9852476.
These are yes or no findings as the source states them, for the method shown. Binding seen in cells or lysates may run through a third protein. Here binding means that the protein was enriched with, or labelled near, the bait; the list need not be complete.

Chains of the proteins cited; added tags and fusions are not shown. Residues count along the entry.
UniProt Q99623: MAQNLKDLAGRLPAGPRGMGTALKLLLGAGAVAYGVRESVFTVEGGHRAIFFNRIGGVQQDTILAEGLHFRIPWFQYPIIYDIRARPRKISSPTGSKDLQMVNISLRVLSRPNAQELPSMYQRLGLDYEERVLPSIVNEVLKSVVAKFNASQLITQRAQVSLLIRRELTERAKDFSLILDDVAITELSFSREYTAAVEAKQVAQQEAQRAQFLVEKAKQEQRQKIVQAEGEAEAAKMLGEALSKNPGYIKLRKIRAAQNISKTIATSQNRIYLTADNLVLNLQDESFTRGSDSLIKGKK
UniProt P28331, residues 24-727: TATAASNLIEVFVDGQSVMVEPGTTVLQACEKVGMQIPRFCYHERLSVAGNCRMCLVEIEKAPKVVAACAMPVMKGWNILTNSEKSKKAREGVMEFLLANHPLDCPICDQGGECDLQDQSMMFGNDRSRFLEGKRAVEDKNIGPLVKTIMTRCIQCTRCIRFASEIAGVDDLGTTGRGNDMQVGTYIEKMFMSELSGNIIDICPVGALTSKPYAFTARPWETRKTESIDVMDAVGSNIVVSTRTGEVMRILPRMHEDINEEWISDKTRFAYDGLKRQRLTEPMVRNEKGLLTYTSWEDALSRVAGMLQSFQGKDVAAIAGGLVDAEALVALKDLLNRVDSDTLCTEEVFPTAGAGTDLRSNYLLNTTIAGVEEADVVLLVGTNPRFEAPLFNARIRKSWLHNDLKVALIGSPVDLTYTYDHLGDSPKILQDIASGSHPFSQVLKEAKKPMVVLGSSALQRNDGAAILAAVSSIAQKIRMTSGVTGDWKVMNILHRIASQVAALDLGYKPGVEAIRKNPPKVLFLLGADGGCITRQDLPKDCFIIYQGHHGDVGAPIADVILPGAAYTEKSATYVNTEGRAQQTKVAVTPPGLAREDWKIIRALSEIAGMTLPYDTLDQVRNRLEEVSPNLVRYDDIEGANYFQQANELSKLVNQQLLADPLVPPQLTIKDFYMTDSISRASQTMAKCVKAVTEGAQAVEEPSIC

Molecular target: Prohibitin 2 (PHB2) (human (endogenous in HCT116 and HT-29)) (UniProt Q99623)
Assay: affinity purification with mass spectrometry; HCT116 lysates immunoprecipitated with anti-PHB2 antibody (4 ug) or control IgG, gel electrophoresis, Coomassie staining, gel strips analysed by LC-MS/MS

binding: binds
Substance: NADH:ubiquinone oxidoreductase core subunit S1 (NDUFS1) (from UniProt P28331 24-727)
